According to patent US20260240895A1, “BETA-GLUCAN PARTICLES FOR TRAINED IMMUNITY” (THE PROVOST, FELLOWS, FOUNDATION SCHOLARS, AND THE OTHER …, priority 2022, published 2026):
At least one structure is not confirmed: it was looked up by name or label, or the drawing left a doubt.

System: human monocytes / monocyte-derived macrophages (hMDM)
Experiment: Human monocyte training assay: cytokine ELISA after restimulation of monocyte-derived macrophages
Assay type: cell-based

Row | SMILES | effect of inhibitor pre-treatment on β-glucan training (TNF after LPS restimulation)
1 | CO[C@H]1C[C@@H]2CC[C@@H](C)[C@@](O)(O2)C(=O)C(=O)N2CCCC[C@H]2C(=O)O[C@H]([C@H](C)C[C@@H]2CC[C@@H](O)[C@H](OC)C2)CC(=O)[C@H](C)/C=C(\C)[C@@H](O)[C@@H](OC)C(=O)[C@H](C)C[C@H](C)/C=C/C=C/C=C/1C [rapamycin] | limits trained responses to LPS-restimulation
2 | COC[C@H]1OC(=O)c2coc3c2[C@@]1(C)C1=C(C3=O)[C@@H]2CCC(=O)[C@@]2(C)C[C@H]1OC(C)=O [wortmannin] | abolishes WGP-driven trained responses
